According to patent US20260152527A1, “NOVEL MELANOCORTIN ANALOGS” (priority 2022, published 2026):
For some assays here: Part of at least one peptide drawing is inferred or uncertain, most often the ends. For at least one compound, name, drawing or mass did not settle the structure. Positions of bridges follow the written chain, without caps; N, C: chain ends. Non-standard residues stand in square brackets, D forms with d. Residues, ends and D or L forms follow the SMILES beside them. Triazole bridges read from a SMILES are 1,4-linked. *: point of attachment. Lys(N3) = [N-]=[N+]=NCCCC[C@H](N)C(=O)O; R5 = C=CCCC[C@@](C)(N)C(=O)O; S5 = C=CCCC[C@](C)(N)C(=O)O; Nle = CCCC[C@H](N)C(=O)O; Pra = C#CC[C@H](N)C(=O)O; X1 = COc1cccc(CC(=O)*)c1

By UniProt entry, the sequences of proteins in these tests, tags left out. Where a name states a change or a piece, a line headed by the entry shows the natural chain unless it says otherwise.
UniProt Q01726: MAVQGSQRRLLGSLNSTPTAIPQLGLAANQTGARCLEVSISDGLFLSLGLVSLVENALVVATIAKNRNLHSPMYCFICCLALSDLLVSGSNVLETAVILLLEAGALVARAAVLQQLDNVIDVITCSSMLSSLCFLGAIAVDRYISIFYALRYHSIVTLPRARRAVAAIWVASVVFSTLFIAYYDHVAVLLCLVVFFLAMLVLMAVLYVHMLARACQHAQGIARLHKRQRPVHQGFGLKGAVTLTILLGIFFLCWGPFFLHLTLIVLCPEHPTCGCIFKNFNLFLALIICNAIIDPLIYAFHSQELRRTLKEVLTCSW
UniProt P41968: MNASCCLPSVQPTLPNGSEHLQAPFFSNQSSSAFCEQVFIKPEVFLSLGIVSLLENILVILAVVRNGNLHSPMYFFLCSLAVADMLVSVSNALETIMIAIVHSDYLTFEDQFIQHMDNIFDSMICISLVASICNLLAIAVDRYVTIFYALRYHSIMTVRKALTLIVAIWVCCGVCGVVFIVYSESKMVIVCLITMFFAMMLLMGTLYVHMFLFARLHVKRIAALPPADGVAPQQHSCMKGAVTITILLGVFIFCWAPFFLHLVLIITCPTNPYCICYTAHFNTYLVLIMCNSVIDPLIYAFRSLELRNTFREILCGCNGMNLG
UniProt P32245, whole entry: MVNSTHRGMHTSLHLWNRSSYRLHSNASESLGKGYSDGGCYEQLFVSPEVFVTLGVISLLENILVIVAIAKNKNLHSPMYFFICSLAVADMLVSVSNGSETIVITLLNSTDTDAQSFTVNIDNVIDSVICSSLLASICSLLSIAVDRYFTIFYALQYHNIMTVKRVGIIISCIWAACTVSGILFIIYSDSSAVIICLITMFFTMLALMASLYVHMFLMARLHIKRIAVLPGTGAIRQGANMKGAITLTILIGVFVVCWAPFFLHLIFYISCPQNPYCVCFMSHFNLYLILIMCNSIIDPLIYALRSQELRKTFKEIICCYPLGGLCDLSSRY

Key:
Assay type in all cases: cell-based
[1] = biological target: T1, human recombinant MC1R (Homo sapiens, UniProt Q01726); experiment: cyclic AMP (cAMP) functional assay, MC1R stable cell line (CHO-K1);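 further: cells with test compound for 60 min at room temperature in buffer containing IBMX, then cAMP quantified by Eu-cAMP tracer and ULight anti-cAMP detection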
T1 construct: host or cells: CHO-K1

[2] = biological target: T2, human recombinant MC3R (Homo sapiens, UniProt P41968); experiment: Ca2+ signalling functional assay, MC3R stable cell line (CHO-K1/Gα15); details: calcium flux functional assay
T2 construct: host or cells: CHO-K1/Gα15

[3] = biological target: T3, human recombinant MC4R (Homo sapiens, UniProt P32245); experiment: Ca2+ signalling functional assay, MC4R stable cell line (CHO-K1/Gα15); details: calcium flux functional assay
T3 construct: host or cells: CHO-K1/Gα15

| IC50 [1] [nM] | IC50 [2] [nM] | IC50 [3] [nM] | SMILES |
| --- | --- | --- | --- |
| > 50 | > 50000 |  | CCCC[C@H](NC(C)=O)C(=O)N[C@]1(C)CCCC=CCCC[C@@](C)(C(=O)N[C@@H](Cc2c[nH]c3ccccc23)C(N)=O)NC(=O)[C@H](CCCNC(=N)N)NC(=O)[C@@H](Cc2ccccc2)NC(=O)[C@H](Cc2c[nH]cn2)NC1=O [KR-026, Ac-Nle-R5-His-DPhe-Arg-S5-Trp-NH2] |
|  | > 50000 |  | CCCC[C@H](NC(C)=O)C(=O)N[C@H]1CCC(=O)NCCN(CC(=O)N[C@@H](Cc2c[nH]c3ccccc23)C(N)=O)C(=O)[C@H](CCCNC(=N)N)NC(=O)[C@@H](Cc2ccccc2)NC(=O)[C@H](Cc2c[nH]cn2)NC1=O [KR-028, Ac-Nle-cyc(Glu-His-DPhe-Arg-NDab)-Trp-NH2] |
| > 50 |  |  | CCCC[C@H](NC(C)=O)C(=O)N[C@]1(C)CCCC=CCCC[C@@](C)(C(N)=O)NC(=O)[C@H](Cc2c[nH]c3ccccc23)NC(=O)[C@H](CCCNC(=N)N)NC(=O)[C@@H](Cc2ccccc2)NC(=O)[C@H](Cc2c[nH]cn2)NC1=O [KR-038, Ac-Nle-[R5-His-DPhe-Arg-Trp-S5]-NH2] (Ac-[Nle][R5]H[dF]RW[S5]-NH2; staple 2-7 (inferred)) |
|  |  | 67.1 | CCCC[C@H](NC(=O)Cc1cccc(OC)c1)C(=O)N[C@H]1CCCCn2cc(nn2)C[C@@H](C(=O)N[C@@H](CCCCN)C(N)=O)NC(=O)[C@H](Cc2c[nH]c3ccccc23)NC(=O)[C@H](CCCNC(=N)N)NC(=O)[C@@H](Cc2ccccc2)NC(=O)[C@H](Cc2c[nH]cn2)NC1=O [KR-063, MoPA-MoPA-Nle-[Lys(N3)-His-DPhe-Arg-Trp-Pra]-Lys-NH2] (X1-[Nle][Lys(N3)]H[dF]RW[Pra]K-NH2; triazole 2-7) |
